At least one result comes from cells or an extract, where the contact may be indirect. For some assays here: A negative result means that nothing was seen under these conditions. At least one verdict was read from the data and is not stated in words by the source. For at least one entry, the source does not settle the construct or the ends of the probe.

By UniProt entry, the sequences of proteins in these tests, tags left out. Where a name states a change or a piece, a line headed by the entry shows the natural chain unless it says otherwise.
UniProt Q96EQ9: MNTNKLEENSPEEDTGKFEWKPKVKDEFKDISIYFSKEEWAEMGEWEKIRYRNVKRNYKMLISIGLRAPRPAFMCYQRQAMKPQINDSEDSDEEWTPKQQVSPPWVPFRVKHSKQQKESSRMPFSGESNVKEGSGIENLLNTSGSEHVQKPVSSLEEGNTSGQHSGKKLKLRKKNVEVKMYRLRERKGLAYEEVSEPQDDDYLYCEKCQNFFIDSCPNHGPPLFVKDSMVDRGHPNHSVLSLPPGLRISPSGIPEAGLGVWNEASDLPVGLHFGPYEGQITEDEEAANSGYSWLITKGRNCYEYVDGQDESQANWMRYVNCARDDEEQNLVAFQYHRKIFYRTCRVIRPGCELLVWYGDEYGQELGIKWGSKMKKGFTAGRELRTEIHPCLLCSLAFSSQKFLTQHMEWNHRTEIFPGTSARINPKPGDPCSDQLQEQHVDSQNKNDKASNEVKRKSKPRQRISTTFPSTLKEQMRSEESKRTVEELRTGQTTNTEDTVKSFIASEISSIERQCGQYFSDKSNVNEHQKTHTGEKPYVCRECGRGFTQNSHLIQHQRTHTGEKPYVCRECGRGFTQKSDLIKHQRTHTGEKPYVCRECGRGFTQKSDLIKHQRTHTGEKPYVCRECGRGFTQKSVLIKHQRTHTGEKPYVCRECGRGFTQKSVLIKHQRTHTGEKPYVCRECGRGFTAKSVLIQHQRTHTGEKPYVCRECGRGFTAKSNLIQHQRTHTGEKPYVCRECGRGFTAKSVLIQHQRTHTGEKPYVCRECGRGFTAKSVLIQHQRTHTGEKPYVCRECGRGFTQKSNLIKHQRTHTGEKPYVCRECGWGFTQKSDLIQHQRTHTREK

For the first data set, the system named is PRDM9Cst (Mus musculus (CAST/EiJ)). The data set is described as follows: EMSA. The settings on record: 10 mM Tris pH 7.5, 50 mM KCl, 1 mM DTT, 50 ng/ul poly(dI/dC), 0.05% NP-40, 0.5 pmol labelled dsDNA (printed pmol/l), 3 ul E. coli extract in 20 ul, 40 min; protein in a lysate after overexpression; protein details: N-terminal His tag (pBAD/HisB). (In general: Mobility shift assays separate free from complexed probe on a gel.)
As for “AAAATTCTAGTAGTAGTGAAATACTTTGCAAATATCAAGGCTCTAATACAAATCCTACTGGCGACATACTTGGAAGAGTA (double strand) [Esrrg-1 80 bp]”, the binding result is on record as “binds”.

Staying with this data set, now noted: 10 mM Tris pH 7.5, 50 mM KCl, 1 mM DTT, 50 ng/ul poly(dI/dC), 0.05% NP-40, 0.5 pmol labelled dsDNA (printed pmol/l), 3 ul E. coli extract in 20 ul, 40 min; protein in a lysate after overexpression; protein details: N-terminal His tag (pBAD/HisB); label: 3' biotin.
In the case of “GTGGGAGGAGATGGTGGGTGAATAGTGTGCAGACTTGGACCCTGCCCTTTCTTTACGCATTCCACTAACCATGGG (double strand) [Hlx1 75 bp]”, the binding result is listed as “binds”.

The next data set shares this test system. The data set is described as follows: EMSA competition. The settings on record: 10 mM Tris pH 7.5, 50 mM KCl, 1 mM DTT, 50 ng/ul poly(dI/dC), 0.05% NP-40, 0.5 pmol labelled dsDNA (printed pmol/l), 3 ul E. coli extract in 20 ul, 40 min; protein in a lysate after overexpression; protein details: N-terminal His tag (pBAD/HisB).
As to “CCAGGGAATAGAACTTTGACCATTACCC (double strand) [Psmb9 28 bp (28r)]”, the binding result is given as “no binding”.

In the case of “TGAATAGTGTGCAGACTTGGACCCTGCCCTTTCTTTACG (double strand) [Hlx1 39 bp]”, the binding result was “binds”.

Regarding “ATACTTTGCAAATATCAAGGCTCTAATACA (double strand) [Esrrg-1 30 bp]”, the binding result is reported as “no binding”.

Consider “AGTGTGCAGACTTGGACCCTGCCCTTTCTTT (double strand) [Hlx1 31 bp minimal]”, for which the binding result is “binds”.

Regarding “GGATCCAGGGAATAGAACTTTGACCATTACCC (double strand) [Psmb9 32 bp (32l)]”, the binding result is “binds”.

Turning to “ATACTTTGCAAATATCAAGGCTCTAATACAAAT (double strand) [Esrrg-1 33 bp minimal]”, the binding result is reported as “binds”.

Turning to “GAAATACTTTGCAAATATCAAGGCTCTAATACAAAT (double strand) [Esrrg-1 36 bp]”, the binding result was “binds”.

Regarding “CCAGGGAATAGAACTTTGACCATTA (double strand) [Psmb9 25 bp (25r)]”, the binding result is recorded as “no binding”.

On to “ATAGTGTGCAGACTTGGACCCTGCCCTTTCTTT (double strand) [Hlx1 33 bp]”, for which the binding result is “binds”.

Consider “ATCCAGGGAATAGAACTTTGACCATTACCC (double strand) [Psmb9 30 bp (30l) minimal]”, for which the binding result was “binds”.

Turning to “TAGTGTGCAGACTTGGACCCTGCCCTTTCTTT (double strand) [Hlx1 32 bp]”, the binding result is listed as “binds”.

For “GTGTGCAGACTTGGACCCTGCCCTTTCTTT (double strand) [Hlx1 30 bp]”, the binding result is “no binding”.

In the next data set the target is PRDM9Dom2 (Mus musculus (C57BL/6J)) (UniProt Q96EQ9). Description: EMSA competition. The settings on record: 10 mM Tris pH 7.5, 50 mM KCl, 1 mM DTT, 50 ng/ul poly(dI/dC), 0.05% NP-40, 0.5 pmol labelled dsDNA (printed pmol/l), 3 ul E. coli extract in 20 ul, 40 min; protein in a lysate after overexpression; residues 1-843; protein details: N-terminal His tag (pBAD/HisB).
Consider “ATGGAGAACTTACAAAGGTAGGACGTAAATGGAGTGTTTA (double strand) [Pbx1 40 bp]”, for which the binding result is given as “binds”.

On to “GAGAACTTACAAAGGTAGGACGTAAATGGAGTG (double strand) [Pbx1 33 bp]”, for which the binding result is given as “no binding”.

For the sequence “GAGAACTTACAAAGGTAGGACGTAAATGGAGTGT (double strand) [Pbx1 34 bp minimal]”, the binding result is “binds”.

As for “GAGAACTTACAAAGGTAGGACGTAAATGGAG (double strand) [Pbx1 31 bp]”, the binding result is recorded as “no binding”.

Turning to “GAGAACTTACAAAGGTAGGACGTAAATGGAGTGTTTA (double strand) [Pbx1 37 bp]”, the binding result is on record as “binds”.

For “GAGAACTTACAAAGGTAGGACGTAAATGG (double strand) [Pbx1 29 bp]”, the binding result is listed as “no binding”.

These data come from paper PMC4053984.
